The experiment concerns the target endogenous PP1 of HEK293 cells (isoform not given) (human (endogenous in HEK293)). The experiment can be described thus: co-IP; HEK293 cells immunoprecipitated with PP1 antibody bound to protein A-sepharose beads; blots with specific antibodies.

These are yes or no findings as the source states them, for the method shown. Binding seen in cells or lysates may run through a third protein.

B1: LAP2β (protein, UniProt P42167 1-454)
chain: MPEFLEDPSVLTKDKLKSELVANNVTLPAGEQRKDVYVQLYLQHLTARNRPPLPAGTNSKGPPDFSSDEEREPTPVLGSGAAAAGRSRAAVGRKATKKTDKPRQEDKDDLDVTELTNEDLLDQLVKYGVNPGPIVGTTRKLYEKKLLKLREQGTESRSSTPLPTISSSAENTRQNGSNDSDRYSDNEEDSKIELKLEKREPLKGRAKTPVTLKQRRVEHNQSYSQAGITETEWTSGSSKGGPLQALTRESTRGSRRTPRKRVETSEHFRIDGPVISESTPIAETIMASSNESLVVNRVTGNFKHASPILPITEFSDIPRRAPKKPLTRAEVGEKTEERRVERDILKEMFPYEASTPTGISASCRRPIKGAAGRPLELSDFRMEESFSSKYVPKYVPLADVKSEKTKKGRSIPVWIKILLFVVVAVFLFLVYQAMETNQVNPFSNFLHVDPRKSN
With B1, the binding result is recorded as “no binding”.

(Values after paper PMC3792071.)
